Some results were stated once for a whole list of compounds, not compound by compound.
System: CAG myeloma cells
Assay: Cell proliferation by BrdU incorporation, CAG myeloma cells
Type: cell-based, human
Details: infected CAG cells
Experimental: FIG. 4. T5 augments cell proliferation. A. BrdU incorporation. Morphology of control (Con), heparanase (Hepa)- and T5-infected CAG myeloma cell cultures is shown in the upper panels. […] Sub-confluent cultures of control (Vo), heparanase (Hepa)- and T5-infected CAG cells were grown in serum-free medium for 20 h followed by incubation with BrdU (1:1000) for 2 h. Cells were then fixed and immunostained with anti BrdU monoclonal antibody. Positively stained, red-brown nuclei were counted vs. blue, hematoxilin counter-stained nuclei. At least 1000 cells were counted for each cell type and the percentage of positively stained cells is noted in each panel. Fold increase in BrdU incorporation is shown graphically on the right panel. Gene silencing. 293 cells were transfected with anti-GFP (si-GFP), anti-heparanase (si-Hepa) or anti-T5 siRNA oligonucleotides and BrdU incorporation was evaluated as above except that cells were kept in serum-containing medium (lower panels). Note 2-fold decrease in BrdU incorporation following heparanase or T5 gene silencing (lower right panel). B. Colony formation in soft agar. […]
Cell proliferation was analyzed by BrdU incorporation using cell proliferation labeling reagent (1:1000, GE Healthcare), as described in Zetser, A., et al (2003 Cancer Res 63, 7733-7741). At least 1000 cells were counted for each cell type.

B1: heparanase: full length wild type human heparanase, endo-β-D-glucuronidase (protein)
chain: QDVVDLDFFTQEPLHLVSPSFLSVTIDANLATDPRFLILLGSPKLRTLARGLSPAYLRFGGTKTDFLIFDPKKESTFEERSYWQSQVNQDICKYGSIPPDVEEKLRLEWPYQEQLLLREHYQKKFKNSTYSRSSVDVLYTFANCSGLDLIFGLNALLRTADLQWNSSNAQLLLDYCSSKGYNISWELGNEPNSFLKKADIFINGSQLGEDFIQLHKLLRKSTFKNAKLYGPDVGQPRRKTAKMLKSFLKAGGEVIDSVTWHHYYLNGRTATKEDFLNPDVLDIFISSVQKVFQVVESTRPGKKVWLGETSSAYGGGAPLLSDTFAAGFMWLDKLGLSARMGIEVVMRQVFFGAGNYHLVDENFDPLPDYWLSLLFKKLVGTKVLMASVQGSKRRKLRVYLHCTNTDNPRYKEGDLTLYAINLHNVTKYLRLPYPFSNKQVDKYLLRPLGPHGLLSKSVQLNGLTLKMVDDQTLPPLMEKPLRPGSSLGLPAFSYSFFVIRNAKVAACI
increase in cell proliferation vs Vo: over 2 fold

Source: patent publication US9428586B2, “Heparanase splice variant” (COMPUGEN LTD, priority 2010, dated 2016)
